# Reference: PubChem BioAssay AID504834 (National Center for Advancing Translational Sciences (NCATS), 2011)
# About 22,000 (6.9%) of roughly 320,000 compounds were called active. Inconclusive results, whose numbers are uncertain, are shown with a selection of clear calls. Calls follow the shape of the dose curve; as a rule, active = well fitted inhibition curve with a large enough effect; inconclusive = small, poorly fitted or top-dose-only effect, or another doubt; inactive = no such curve, though single readings can be large or run the other way. A potency beside an inconclusive call is a rough fit, not a confirmed value.
# Assay: Primary qHTS for delayed death inhibitors of the malarial parasite plastid, 96 hour incubation
# Settings: P. falciparum luciferase reporter growth; series mostly up to 28.7 µM; activity change, negative = inhibition: at the top concentration
# In short: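 Cell-based qHTS: luciferase-tagged P. falciparum in erythrocytes (2% hematocrit, 0.05% parasitemia final) incubated with compounds for 96 hours, 37 C, 5% CO2; luciferase detection reagent then added and luminescence measured.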
# % is scaled to controls: 0 for no effect and ±100 for the full control effect; potency is read from the fitted curve at half-maximal effect.
Structure (SMILES),Potency,"activity change, negative = inhibition"
Nc1ncn([C@@H]2O[C@H](CO)[C@@H](O)[C@H]2O)c(=O)n1,inactive,
CC(C)(C)c1cc(CCC(=O)NNC(=O)c2ccco2)cc(C(C)(C)C)c1O,"inconclusive: 18.5 µM [inhibitor, single point]",
Cc1ccccc1C(=O)N1CCN(c2ccc(NC(=S)NC(=O)c3cccs3)cc2)CC1,,inactive: -2.98%
COc1nc(NCCO)nc(Nc2cc(Cl)ccc2OC)n1,"inconclusive: 10.4 µM [inhibitor, single point]",
Cc1ccc(-c2cc(C(=O)N3CCN(C(=O)c4ccco4)CC3)[nH]n2)c(C)c1,"inconclusive: 0.147 µM [inhibitor, partial curve, poor fit]",
Cc1cccc(NS(=O)(=O)c2ccc(C)c(C(=O)NCC(c3ccccc3)N(C)C)c2)c1 (stereo not drawn),"inconclusive: 18.5 µM [inhibitor, single point]",
O=C(Cn1cnc2ccccc2c1=O)Nc1nc2ccccc2s1,,inactive: 32.4%
C#Cc1ccc(CN2CCN(CCCc3ccccc3)C(CCO)C2)cc1 (stereo not drawn),"inconclusive: 16.5 µM [inhibitor, partial curve, poor fit]",
CCOc1ccc(CC(=NCCc2ccccc2)C2=C(O)CC(C)(C)CC2=O)cc1OCC,"inconclusive: 16.5 µM [inhibitor, partial curve, poor fit]",
O=C1c2ccccc2C(=O)N1CN(C(=O)c1ccccc1)c1ccc(O)cc1,"inconclusive: 18.5 µM [inhibitor, single point]",
Nc1ccc(N2CCN(C(=O)c3cccs3)CC2)cc1,"inconclusive: 18.5 µM [inhibitor, single point]",
Clc1ccccc1CSc1nnc(-c2ccccn2)n1Cc1ccco1,"inconclusive: 10.4 µM [inhibitor, single point]",
O=C(NCCc1ccc(Cl)cc1)C1CCCN(c2ncnc3c2nc2n3CCCCC2)C1 (stereo not drawn),"inconclusive: 13.1 µM [inhibitor, partial curve, poor fit]",
Cn1c2c(c(O)c(-c3ccccc3)c1=O)C(=O)CC(C)(C)C2,"inconclusive: 4.15 µM [inhibitor, partial curve, poor fit]",
COc1ccccc1CCNC1CCC(C(C)(C)C)CC1 (stereo not drawn),active: 2.62 µM,
Cc1ccc(N2CCN(Cc3ccccc3)CC2=O)c(C)c1,"inconclusive: 11.7 µM [inhibitor, single point]",
Cc1nc(N)sc1-c1csc(NCc2ccccc2)n1,"inconclusive: 20.8 µM [inhibitor, partial curve, poor fit]",
N#CCCN1CCN(S(=O)(=O)c2ccc(S(=O)(=O)NC3CCCCC3)cc2)CC1,active: 8.28 µM,
COc1ccc(S(=O)(=O)Nc2cc(C(=O)NCCCOC(C)C)ccc2N2CCOCC2)cc1,"inconclusive: 0.0738 µM [inhibitor, full curve, poor fit]",
O=C(CCc1ccccc1)Nc1ccccc1,"inconclusive: 11.7 µM [inhibitor, single point]",
C=CCN(CC=C)C(=O)c1cccc(OC2CCN(S(=O)(=O)N(C)C)CC2)c1,"inconclusive: 18.5 µM [inhibitor, single point]",
Cc1nnc(NC(=O)c2ccc3nccnc3c2)s1,,inactive: 63.9%
COc1ccc(NC(=O)COc2coc(CN3CCCc4ccccc43)cc2=O)cc1,"inconclusive: 1.65 µM [inhibitor, full curve]",

Structure (SMILES),Potency,"activity change, negative = inhibition"
CCc1cc(=O)oc2c(C)c(OC(C)C(=O)NC3CC(C)(C)NC(C)(C)C3)ccc12 (stereo not drawn),"inconclusive: 5.22 µM [inhibitor, partial curve]",
O=C(NCCc1ccccc1)Nc1ccc(Cl)cc1,,inactive: 16.8%
O=C(Nc1nnc(/N=C/c2ccco2)s1)c1ccc(F)cc1,"inconclusive: 13.1 µM [inhibitor, single point]",
COc1ccccc1/C=N/Nc1cc(C)nc(N2CCOCC2)n1,"inconclusive: 10.4 µM [inhibitor, single point]",
CCOC(=O)CC(NC(=O)c1cc2ccccc2oc1=O)c1cccc([N+](=O)[O-])c1 (stereo not drawn),"inconclusive: 8.28 µM [inhibitor, partial curve, poor fit]",
Cc1ccc(S(=O)(=O)N(Cc2cc3ccccc3[nH]c2=O)c2cccc(C)c2)cc1,"inconclusive: 2.62 µM [inhibitor, full curve]",
Cc1cc(NC(=O)c2cc(-c3ccc(C)s3)nc3ccccc23)no1,active: 11.7 µM,
Cc1ccccc1CNC(=O)C(=O)NCC1CCCN1S(=O)(=O)c1cccs1 (stereo not drawn),"inconclusive: 18.5 µM [inhibitor, single point]",
Cc1c(C(=O)NCC2COc3ccccc3O2)oc2ccc(S(=O)(=O)N3CCOCC3)cc12 (stereo not drawn),,inactive: 21.8%
Cc1ccccc1NC(=S)NC(NC(=O)CF)C(Cl)(Cl)Cl (stereo not drawn),"inconclusive: 18.5 µM [inhibitor, single point]",
Cn1c(=O)oc2cc(S(=O)(=O)N3CCC(C(=O)NCCc4ccccc4)CC3)ccc21,"inconclusive: 1.47 µM [inhibitor, partial curve, poor fit]",
CCC(C)N(C(=O)COc1ccccc1C(=O)NCc1ccccc1)C1CCS(=O)(=O)C1 (stereo not drawn),active: 9.28 µM,
O=C(COc1ccc(S(=O)(=O)NCc2ccccc2)cc1)NCc1cccnc1,,inactive: 59.4%
CN(C)S(=O)(=O)c1cc(NC(=O)CNCc2ccccc2)ccc1Cl,"inconclusive: 10.4 µM [inhibitor, single point]",
Clc1cc(Br)ccc1OCCCn1ccnc1,"inconclusive: 20.8 µM [inhibitor, partial curve, poor fit]",
COc1cccc(CNS(=O)(=O)c2cc3c4c(c2)CCN4C(=O)CC3)c1,,inactive: -0.508%
CCS(=O)(=O)N1CCC(C(=O)Oc2ccccc2OC)CC1,active: 13.1 µM,
Cc1ccc(C)c(CSC2=NCCN2S(=O)(=O)c2ccccc2)c1,"inconclusive: 1.31 µM [inhibitor, single point]",
Cc1ccc(Cn2nc(C)c(NC(=O)c3noc4c3CCCCC4)c2C)cc1,"inconclusive: 3.29 µM [inhibitor, partial curve]",
O=C(CSCc1c(F)cccc1Cl)NNC(=S)NC1CCCCC1,"inconclusive: 18.5 µM [inhibitor, single point]",
Cc1ccc(SCC(=O)NN2C(=O)c3ccccc3C2=O)cc1,"inconclusive: 18.5 µM [inhibitor, partial curve, poor fit]",
CC1CC(C)CN(CC(C)(C)NS(=O)(=O)c2ccc(Cl)cc2)C1 (stereo not drawn),"inconclusive: 18.5 µM [inhibitor, single point]",
Cc1cc2ncn(C(=O)N3CCC(C)CC3)c2cc1C,,inactive: 37.4%

Structure (SMILES),Potency,"activity change, negative = inhibition"
CC(=O)C1=C(O)CC(C)(C)CC1=NCCc1nc2ccccc2[nH]1,"inconclusive: 2.33 µM [inhibitor, partial curve, poor fit]",
Cc1ccc(S(=O)(=O)Nc2ccc3c(c2)OCCO3)c(C)c1NS(C)(=O)=O,"inconclusive: 18.5 µM [inhibitor, single point]",
O=C(NNC(=S)NC(=O)c1ccccc1)c1ccc([N+](=O)[O-])cc1,"inconclusive: 18.5 µM [inhibitor, single point]",
Cc1ccccc1NC(=O)C1CC(=O)N(c2ccc3c4c(cccc24)CC3)C1 (stereo not drawn),,inactive: 42%
COC(=O)CSc1nnc(CSc2nc(C)cc(C)n2)o1,"inconclusive: 10.4 µM [inhibitor, partial curve, poor fit]",
Cc1ccc(CNC(=O)C2CCC(CNc3c(N4CCOCC4)c(=O)c3=O)CC2)cc1 (stereo not drawn),"inconclusive: 18.5 µM [inhibitor, single point]",
Cc1c(-c2ccco2)[n+](=O)c2c(n1[O-])CCC2,active: 14.7 µM,
CC1=C(C#N)C(=O)NC(=O)/C1=C/c1ccc(-c2ccc(S(N)(=O)=O)cc2)o1,"inconclusive: 4.15 µM [inhibitor, partial curve, poor fit]",
O=C(Nc1ccncc1)C1CCN(S(=O)(=O)c2ccccc2)CC1,,inactive: -15.1%
CNC(=O)N(C1=NCCCCC1)c1ccc(Br)cc1,"inconclusive: 7.38 µM [inhibitor, single point]",
O=C1CC(=O)N(CCNc2ncc(C(F)(F)F)cc2Cl)C(=O)N1,,inactive: 91.9%
CCOCCCNC(=S)NCCCNc1nc2cc3c(cc2cc1C#N)OCO3,"inconclusive: 18.5 µM [inhibitor, single point]",
COC(=O)c1ccc(-c2ncc[nH]2)cc1,,inactive: 48.3%
O=C(c1ccc(Br)o1)N1CCN(c2ccc3nnc(-c4ccc(F)cc4)n3n2)CC1,,inactive: 72.3%
CCC(C)NC(=O)c1ccc(NC(=O)C2CCCO2)cc1 (stereo not drawn),,inactive: 2.32%
CCC(=O)Nc1ccc(C(=O)NNC(=O)C2CCCCC2)cc1,,inactive: -2.87%
COc1ccc(N(CC(=O)Nc2ccc(C)cn2)S(=O)(=O)c2c(C)noc2C)cc1,,inactive: -0.561%
CCN(CC)CCCNc1nc(-c2ccccc2)nc2ccccc12,"inconclusive: 10.4 µM [inhibitor, partial curve, poor fit]",
O=C(CNC(=O)c1ccco1)NCC(=O)OCc1ccc(C(=O)Oc2ccc(Cl)cc2)cc1,"inconclusive: 0.0415 µM [inhibitor, full curve, poor fit]",
CCn1c(=O)c(CCC(=O)N2CCN(c3ccccn3)CC2)c(C)c2c(C)nn(-c3cccc(C)c3)c21,"inconclusive: 18.5 µM [inhibitor, single point]",
COc1ccc(C(C(=O)NC2CCCC2)N(C(=O)c2ccoc2C)c2ccc(C)cc2)cc1 (stereo not drawn),"inconclusive: 9.28 µM [inhibitor, partial curve]",
CSc1cccc(NC(=O)CSc2ncccc2C(=O)Oc2cccc([N+](=O)[O-])c2)c1,"inconclusive: 4.15 µM [inhibitor, single point]",

# Shown with tabs: entries from further up
Structure (SMILES)	Potency	activity change, negative = inhibition
C=CCN(CC=C)C(=O)c1cccc(OC2CCN(S(=O)(=O)N(C)C)CC2)c1	inconclusive: 18.5 µM [inhibitor, single point]	
Cc1nnc(NC(=O)c2ccc3nccnc3c2)s1		inactive: 63.9%
